Test results as given in patent US20230088269A1.
These are yes or no findings as the source states them, for the method shown. Some results given as binding are weak or reduced against the parent protein; the word gives no strength. Sequences can lack the tags named with a protein.

Experiments:
[1] = biological target: T1, rhIL22R-Fc (rhesus IL22R ECD fused to human Fc) (rhesus monkey) (UniProt G7MHN4); assay: ELISA and SPR (Biacore), mAb
T1 sequence: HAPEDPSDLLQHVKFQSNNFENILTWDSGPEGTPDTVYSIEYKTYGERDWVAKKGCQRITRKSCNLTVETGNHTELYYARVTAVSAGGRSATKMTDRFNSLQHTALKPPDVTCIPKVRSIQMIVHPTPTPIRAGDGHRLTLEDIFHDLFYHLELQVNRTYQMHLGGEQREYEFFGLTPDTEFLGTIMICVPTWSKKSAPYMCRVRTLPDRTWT

[2] = biological target: T1, rhIL22R-Fc (rhesus IL22R ECD fused to human Fc) (rhesus monkey); assay: summary table of cross-reactivity, mAb

B1: 157A2 mAb (antibody, IgG1, V domains shown)
VH: QVQLVESGGGLVQPGGSLRLSCAASGFTFSSYDMSWVRQAPGKGLEWVSSIYNDGSNTAYSDSVKGRFTISRDNAKNTLYLQMNSLKSEDTAVYYCAKVGFSGTYYSESWGQGTQVTVSS
VL: NFMLTQPSAVSVSLGQTAKITCQGGYYAHWYQQKPGQAPVLVIYGNNNRPSGIPERFSGSSSGNTATLTISGAQAEDEAEYYCQSGSSSANAVFGGGTHLTVL
- binding [1]: binds
- binding [2]: binds

B2: 166G8 mAb (antibody, IgG1, V domains shown)
VH: QVQLVESGGGLVQPGDSLRLSCAASGFTFGSYFMSWVRQAPGKGPEWVSGIHISGGITYYLDSVKGRFTISRDNAKNTLYLQMNNLKPEDTAVYYCVTPPGPFKAHYNGMKYWGKGTLVTVSS
VL: NFMLTQPPSVSGTLGKTVTISCTGTSRDIGDYNYVSWYQQLPGLAPKLLIYKVNTRSSGTPDRFSGSKSGNTASLTISGLQSEDEADYYCASYRLYADYVFGGGTHLTVL
- binding [1]: binds
- binding [2]: binds

B3: 218A7 mAb (antibody, V domains shown)
VH: QVQLVESGGGLVQPGGSLRLSCAASGFTFSSYDMSWVRQAPGKGLEWVSSIYNDGSNTAYSDSVKGRFTISRDNAKNTLYLQMNSLKSEDTAVYYCAKVGFSGTYYSESWGQGTQVTVSS
VL: LPVLTQPSAVSVSLGQTARITCQGGYYAHWYQQKPGQAPVLVIYGQNNRPSGIPERFSGSGAGNTATLTISGAQAEDEAEYYCQSGSSSANAVFGGGTKLTVL
- binding [2]: binds
